These are yes or no findings as the source states them, for the method shown. In cells and extracts the contact can be indirect. Binding can be weak; no strength is given.
Molecular target: T1, C‐reactive protein (rat (endogenous in DRG tissue)) (UniProt P48199)
T1 sequence: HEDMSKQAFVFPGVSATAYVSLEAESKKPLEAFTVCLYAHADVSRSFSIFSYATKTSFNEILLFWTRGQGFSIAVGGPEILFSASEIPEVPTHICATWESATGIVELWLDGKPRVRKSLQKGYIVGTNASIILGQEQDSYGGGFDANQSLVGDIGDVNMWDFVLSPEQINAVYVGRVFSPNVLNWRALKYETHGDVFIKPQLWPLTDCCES
Assay: co-IP; rat L4‐L5 DRG tissue lysates (RIPA lysis buffer with NP‐40, protease and phosphatase inhibitors) from sham and CCI rats; immunoprecipitated over 2 h at 4 °C with protein A/G coupled with anti‐FcγRI, anti‐Syk or anti‐CRP antibody (Pierce Crosslink Magnetic IP/Co‐IP Kit); immunoblot

- binding: binds
Substance: Fc‐gamma‐receptor type I (rat (endogenous in DRG tissue))

From article PMC10074098
